From PMC12176286 come the findings set out here.

Chains of the proteins cited; added tags and fusions are not shown. Residues count along the entry.
UniProt P54756, residues 25-1037: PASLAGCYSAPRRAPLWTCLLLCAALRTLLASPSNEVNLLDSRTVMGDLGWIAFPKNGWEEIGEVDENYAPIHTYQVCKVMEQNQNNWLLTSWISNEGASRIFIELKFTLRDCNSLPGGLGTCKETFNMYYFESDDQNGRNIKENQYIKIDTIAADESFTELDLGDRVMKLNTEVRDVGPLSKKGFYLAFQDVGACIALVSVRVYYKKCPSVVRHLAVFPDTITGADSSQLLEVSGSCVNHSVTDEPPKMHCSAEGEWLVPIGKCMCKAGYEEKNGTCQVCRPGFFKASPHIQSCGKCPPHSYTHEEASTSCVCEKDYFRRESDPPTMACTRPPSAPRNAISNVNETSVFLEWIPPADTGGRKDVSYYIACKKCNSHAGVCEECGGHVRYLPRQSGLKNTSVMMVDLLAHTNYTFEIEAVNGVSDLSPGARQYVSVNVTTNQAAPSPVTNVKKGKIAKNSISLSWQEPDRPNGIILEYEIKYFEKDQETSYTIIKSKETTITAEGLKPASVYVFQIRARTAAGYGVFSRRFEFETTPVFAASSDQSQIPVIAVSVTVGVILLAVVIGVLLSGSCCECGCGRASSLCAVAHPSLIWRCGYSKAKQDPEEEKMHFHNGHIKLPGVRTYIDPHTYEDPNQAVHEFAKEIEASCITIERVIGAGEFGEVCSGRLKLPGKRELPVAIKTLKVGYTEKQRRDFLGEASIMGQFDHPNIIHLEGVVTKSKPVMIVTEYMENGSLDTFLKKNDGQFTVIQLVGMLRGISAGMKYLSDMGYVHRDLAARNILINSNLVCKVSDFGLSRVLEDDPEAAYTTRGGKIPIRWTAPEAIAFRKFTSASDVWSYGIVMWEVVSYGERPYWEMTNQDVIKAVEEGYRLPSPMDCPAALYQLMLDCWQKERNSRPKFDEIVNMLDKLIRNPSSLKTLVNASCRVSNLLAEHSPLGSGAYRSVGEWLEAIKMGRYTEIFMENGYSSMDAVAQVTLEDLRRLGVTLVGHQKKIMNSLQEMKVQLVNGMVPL

This experiment addresses T1, Rho GTPase-activating protein TAGAP (UniProt Q8N103).
T1 sequence: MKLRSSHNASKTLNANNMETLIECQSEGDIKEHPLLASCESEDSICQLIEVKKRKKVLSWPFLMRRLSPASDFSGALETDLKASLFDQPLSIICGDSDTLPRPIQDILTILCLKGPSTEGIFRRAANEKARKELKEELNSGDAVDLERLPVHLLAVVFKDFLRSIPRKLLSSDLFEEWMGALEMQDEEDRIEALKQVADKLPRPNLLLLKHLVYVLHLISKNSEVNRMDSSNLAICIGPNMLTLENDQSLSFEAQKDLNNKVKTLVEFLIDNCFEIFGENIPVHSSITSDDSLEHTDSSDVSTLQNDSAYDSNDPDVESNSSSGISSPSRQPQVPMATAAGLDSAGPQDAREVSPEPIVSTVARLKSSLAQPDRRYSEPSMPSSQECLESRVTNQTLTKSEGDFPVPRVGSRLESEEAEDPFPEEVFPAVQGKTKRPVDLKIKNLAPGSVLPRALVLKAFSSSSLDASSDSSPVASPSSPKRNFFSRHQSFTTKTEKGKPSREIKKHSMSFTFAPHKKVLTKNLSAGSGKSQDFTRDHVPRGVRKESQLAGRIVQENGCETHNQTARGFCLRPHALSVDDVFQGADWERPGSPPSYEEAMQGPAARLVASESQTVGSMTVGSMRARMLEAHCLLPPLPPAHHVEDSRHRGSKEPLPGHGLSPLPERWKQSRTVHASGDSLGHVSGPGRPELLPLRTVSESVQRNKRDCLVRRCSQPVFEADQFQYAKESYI
As to the kind of experiment: affinity purification with mass spectrometry; immunoprecipitation and mass spectrometry; no further details told.

These are yes or no findings as the source states them, for the method shown. Binding seen in cells or lysates may run through a third protein. A yes stands for co-enrichment or nearness to the bait. Other partners may have been found. Tags and fused reporters may be left off the sequences shown.

On to “EPHA5 (found with TAGAP by immunoprecipitation and mass spectrometry) (from UniProt P54756 25-1037) (receptor)”, for which the binding entry is reported as “binds”.
